These are yes or no findings as the source states them, for the method shown. In cells and extracts the contact can be indirect. Binding can be weak; no strength is given. Where a sequence is shown, tags or fusion partners need not be part of it.

Sequences of proteins named here, by UniProt entry; tags and fusion partners are left off. A change or cut given only in a name is not applied to a line headed by its entry.
UniProt Q02085: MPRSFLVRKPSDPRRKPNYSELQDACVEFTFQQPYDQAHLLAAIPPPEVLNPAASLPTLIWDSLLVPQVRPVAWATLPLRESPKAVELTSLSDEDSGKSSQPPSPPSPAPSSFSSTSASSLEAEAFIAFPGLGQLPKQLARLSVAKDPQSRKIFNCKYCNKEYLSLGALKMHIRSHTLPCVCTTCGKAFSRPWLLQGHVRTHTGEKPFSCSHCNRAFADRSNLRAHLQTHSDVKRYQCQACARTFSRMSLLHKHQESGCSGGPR
UniProt P97469: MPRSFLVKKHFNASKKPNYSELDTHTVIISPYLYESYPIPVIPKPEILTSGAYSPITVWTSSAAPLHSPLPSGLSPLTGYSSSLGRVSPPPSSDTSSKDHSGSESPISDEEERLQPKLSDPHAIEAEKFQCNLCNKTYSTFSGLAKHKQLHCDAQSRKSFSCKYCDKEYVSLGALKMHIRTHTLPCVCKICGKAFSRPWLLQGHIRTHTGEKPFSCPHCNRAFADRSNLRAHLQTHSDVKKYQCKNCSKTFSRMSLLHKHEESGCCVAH

This assay deals with T1, GST-FBXL5 (pGEX-6P-1) (UniProt Q9UKA1).
T1 sequence: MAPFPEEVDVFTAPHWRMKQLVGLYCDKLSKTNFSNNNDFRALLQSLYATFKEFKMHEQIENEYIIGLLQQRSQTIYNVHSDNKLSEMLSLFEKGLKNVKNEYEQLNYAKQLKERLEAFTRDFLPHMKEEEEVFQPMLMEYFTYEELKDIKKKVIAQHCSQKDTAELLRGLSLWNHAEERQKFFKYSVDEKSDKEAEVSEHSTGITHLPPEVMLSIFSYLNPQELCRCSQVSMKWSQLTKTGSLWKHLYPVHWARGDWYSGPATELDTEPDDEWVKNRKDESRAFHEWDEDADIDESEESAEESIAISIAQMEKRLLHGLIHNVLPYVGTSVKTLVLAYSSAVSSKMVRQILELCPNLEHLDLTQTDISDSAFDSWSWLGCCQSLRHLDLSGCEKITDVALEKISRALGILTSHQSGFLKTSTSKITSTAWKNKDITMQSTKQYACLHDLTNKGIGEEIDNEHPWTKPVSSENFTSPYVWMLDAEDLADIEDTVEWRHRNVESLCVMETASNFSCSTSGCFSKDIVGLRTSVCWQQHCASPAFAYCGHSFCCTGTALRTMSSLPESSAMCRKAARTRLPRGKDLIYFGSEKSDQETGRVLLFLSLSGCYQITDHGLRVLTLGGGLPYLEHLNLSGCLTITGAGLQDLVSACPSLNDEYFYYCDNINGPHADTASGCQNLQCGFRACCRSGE
Kind of assay: pull-down; GST or GST-FBXL5 protein on glutathione-sepharose with extracts from transfected HEK293T cells; western blot; only the target purified.
Regarding “GFP-Snail1CT ΔZnF4 (from UniProt Q02085) (domain or fragment)”, the binding entry is recorded as “binds”.
The value for “GFP-Snail1CT ΔZnF2-4 (from UniProt Q02085) (domain or fragment)” was “no binding”.
The value for “Snail2-HA (pcDNA3-Snail2-HA) (from UniProt P97469)” was “binds”.

These data come from PMC3902928, “Nuclear ubiquitination by FBXL5 modulates Snail1 DNA binding and stability” (Nucleic Acids Research, 2013).
